Measured values published in PMC8472134.
These are yes or no findings as the source states them, for the method shown. A result given as binding can be weak or reduced; the word gives no strength. Tags and fused reporters may be left off the sequences shown.

Molecular target: T1, N-Myc Downregulated like 1 (NDL1) (Arabidopsis) (UniProt Q9FJT7)
T1 sequence: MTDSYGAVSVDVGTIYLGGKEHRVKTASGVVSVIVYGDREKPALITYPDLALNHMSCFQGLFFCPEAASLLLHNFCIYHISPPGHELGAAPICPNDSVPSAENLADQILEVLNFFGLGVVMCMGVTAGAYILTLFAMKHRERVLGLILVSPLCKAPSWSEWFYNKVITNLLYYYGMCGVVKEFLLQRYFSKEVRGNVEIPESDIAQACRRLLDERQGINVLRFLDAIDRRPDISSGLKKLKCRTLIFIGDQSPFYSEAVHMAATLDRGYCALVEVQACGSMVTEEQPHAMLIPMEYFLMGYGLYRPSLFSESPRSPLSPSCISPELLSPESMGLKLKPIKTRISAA
Assay: two-hybrid; Gal4-based two-hybrid in yeast AH109; NDL1 with Gal4 DNA-binding domain (pAS-attR), partner with Gal4 activation domain (pACTGW-attR); double transformants on SD/-Leu/-Trp; colony-lift filter beta-galactosidase assay with X-gal, 14-16 h at 30 °C, blue colonies scored positive; NDL1 alone as negative control

Question: For SLT1 (Arabidopsis), which binding is on record?
Answer: Its binding is “binds”.
